# Source: the supplement of paper PMC6411743
# The chains behind the UniProt entries cited, without tags or fusion partners. Where a name states a change or a piece, a line headed by the entry shows the natural chain unless it says otherwise.
# UniProt Q8N9F7: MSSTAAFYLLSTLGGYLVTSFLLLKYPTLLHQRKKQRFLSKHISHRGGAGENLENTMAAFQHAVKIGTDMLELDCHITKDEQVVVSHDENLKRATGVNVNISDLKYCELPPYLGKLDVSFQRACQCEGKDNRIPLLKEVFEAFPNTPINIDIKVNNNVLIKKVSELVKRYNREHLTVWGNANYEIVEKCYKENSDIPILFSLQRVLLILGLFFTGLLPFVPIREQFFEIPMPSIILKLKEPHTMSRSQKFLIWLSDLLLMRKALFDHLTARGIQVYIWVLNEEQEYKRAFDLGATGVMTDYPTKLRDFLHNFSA
# UniProt Q86TU7: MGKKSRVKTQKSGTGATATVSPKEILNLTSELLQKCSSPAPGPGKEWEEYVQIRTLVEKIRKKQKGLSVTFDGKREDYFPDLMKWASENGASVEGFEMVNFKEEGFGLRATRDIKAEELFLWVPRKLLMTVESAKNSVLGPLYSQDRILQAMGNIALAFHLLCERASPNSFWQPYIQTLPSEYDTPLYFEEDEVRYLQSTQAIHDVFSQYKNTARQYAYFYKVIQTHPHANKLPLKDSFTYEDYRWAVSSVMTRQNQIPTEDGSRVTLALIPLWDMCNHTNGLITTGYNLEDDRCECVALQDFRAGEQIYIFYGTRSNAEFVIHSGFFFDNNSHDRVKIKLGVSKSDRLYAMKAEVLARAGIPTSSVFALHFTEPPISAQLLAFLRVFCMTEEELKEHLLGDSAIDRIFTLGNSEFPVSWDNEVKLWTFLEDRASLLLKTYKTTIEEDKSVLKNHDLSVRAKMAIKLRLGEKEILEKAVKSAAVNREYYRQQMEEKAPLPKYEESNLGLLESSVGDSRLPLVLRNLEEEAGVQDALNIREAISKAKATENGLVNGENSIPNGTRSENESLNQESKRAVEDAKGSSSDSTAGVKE
# UniProt Q8N302: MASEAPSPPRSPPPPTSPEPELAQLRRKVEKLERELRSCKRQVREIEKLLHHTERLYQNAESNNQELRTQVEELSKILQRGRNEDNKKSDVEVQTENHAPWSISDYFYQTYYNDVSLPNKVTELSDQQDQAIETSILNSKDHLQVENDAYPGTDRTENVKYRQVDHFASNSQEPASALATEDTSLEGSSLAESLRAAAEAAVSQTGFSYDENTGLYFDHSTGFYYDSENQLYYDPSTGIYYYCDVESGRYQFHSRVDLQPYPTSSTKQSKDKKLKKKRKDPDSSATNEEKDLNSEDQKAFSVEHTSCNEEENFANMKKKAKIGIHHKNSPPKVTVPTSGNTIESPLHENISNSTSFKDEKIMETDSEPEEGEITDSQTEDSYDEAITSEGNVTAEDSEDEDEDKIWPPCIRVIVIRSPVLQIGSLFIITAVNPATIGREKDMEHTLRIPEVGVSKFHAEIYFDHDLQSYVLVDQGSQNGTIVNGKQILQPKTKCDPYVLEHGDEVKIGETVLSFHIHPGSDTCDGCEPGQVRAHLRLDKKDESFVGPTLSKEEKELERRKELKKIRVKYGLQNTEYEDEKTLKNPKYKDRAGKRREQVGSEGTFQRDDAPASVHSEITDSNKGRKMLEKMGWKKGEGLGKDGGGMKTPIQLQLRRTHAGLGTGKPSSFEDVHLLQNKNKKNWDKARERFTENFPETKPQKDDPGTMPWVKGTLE
# UniProt Q86XZ4: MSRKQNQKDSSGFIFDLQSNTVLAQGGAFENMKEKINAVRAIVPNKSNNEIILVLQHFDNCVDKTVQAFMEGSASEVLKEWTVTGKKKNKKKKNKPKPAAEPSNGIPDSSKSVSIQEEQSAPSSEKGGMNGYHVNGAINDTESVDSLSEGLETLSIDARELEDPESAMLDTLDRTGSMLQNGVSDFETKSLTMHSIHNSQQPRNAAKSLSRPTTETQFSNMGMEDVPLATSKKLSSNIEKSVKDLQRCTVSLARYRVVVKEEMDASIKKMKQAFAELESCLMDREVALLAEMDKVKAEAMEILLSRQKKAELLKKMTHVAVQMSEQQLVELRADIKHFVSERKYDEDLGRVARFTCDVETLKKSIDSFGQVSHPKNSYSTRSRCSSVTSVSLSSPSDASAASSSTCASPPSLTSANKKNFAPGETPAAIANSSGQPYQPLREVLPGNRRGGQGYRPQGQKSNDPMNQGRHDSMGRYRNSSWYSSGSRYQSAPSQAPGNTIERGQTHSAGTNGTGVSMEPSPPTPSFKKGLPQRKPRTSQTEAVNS
# UniProt Q8N8A6: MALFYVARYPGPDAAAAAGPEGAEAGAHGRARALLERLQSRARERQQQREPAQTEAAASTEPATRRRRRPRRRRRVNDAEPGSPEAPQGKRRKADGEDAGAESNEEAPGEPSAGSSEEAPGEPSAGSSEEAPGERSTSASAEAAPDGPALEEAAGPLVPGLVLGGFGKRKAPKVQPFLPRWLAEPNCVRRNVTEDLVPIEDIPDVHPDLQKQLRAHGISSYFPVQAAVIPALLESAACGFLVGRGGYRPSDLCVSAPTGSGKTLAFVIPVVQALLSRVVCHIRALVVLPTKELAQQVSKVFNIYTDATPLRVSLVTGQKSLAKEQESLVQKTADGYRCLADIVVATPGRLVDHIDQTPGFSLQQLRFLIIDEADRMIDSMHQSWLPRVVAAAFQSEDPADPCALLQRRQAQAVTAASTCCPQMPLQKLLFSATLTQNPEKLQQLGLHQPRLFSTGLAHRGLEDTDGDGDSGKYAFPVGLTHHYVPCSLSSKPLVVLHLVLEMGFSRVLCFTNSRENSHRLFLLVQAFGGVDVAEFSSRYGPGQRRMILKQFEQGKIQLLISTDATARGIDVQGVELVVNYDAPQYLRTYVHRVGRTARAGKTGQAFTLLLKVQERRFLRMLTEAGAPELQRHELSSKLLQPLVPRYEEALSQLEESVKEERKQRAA
# UniProt Q8N4P3, whole entry: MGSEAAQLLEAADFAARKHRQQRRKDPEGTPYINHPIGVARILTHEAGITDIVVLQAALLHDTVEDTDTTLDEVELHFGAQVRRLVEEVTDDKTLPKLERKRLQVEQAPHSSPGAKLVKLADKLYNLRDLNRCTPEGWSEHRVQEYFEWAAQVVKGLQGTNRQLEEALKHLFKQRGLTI
# UniProt Q8IY18: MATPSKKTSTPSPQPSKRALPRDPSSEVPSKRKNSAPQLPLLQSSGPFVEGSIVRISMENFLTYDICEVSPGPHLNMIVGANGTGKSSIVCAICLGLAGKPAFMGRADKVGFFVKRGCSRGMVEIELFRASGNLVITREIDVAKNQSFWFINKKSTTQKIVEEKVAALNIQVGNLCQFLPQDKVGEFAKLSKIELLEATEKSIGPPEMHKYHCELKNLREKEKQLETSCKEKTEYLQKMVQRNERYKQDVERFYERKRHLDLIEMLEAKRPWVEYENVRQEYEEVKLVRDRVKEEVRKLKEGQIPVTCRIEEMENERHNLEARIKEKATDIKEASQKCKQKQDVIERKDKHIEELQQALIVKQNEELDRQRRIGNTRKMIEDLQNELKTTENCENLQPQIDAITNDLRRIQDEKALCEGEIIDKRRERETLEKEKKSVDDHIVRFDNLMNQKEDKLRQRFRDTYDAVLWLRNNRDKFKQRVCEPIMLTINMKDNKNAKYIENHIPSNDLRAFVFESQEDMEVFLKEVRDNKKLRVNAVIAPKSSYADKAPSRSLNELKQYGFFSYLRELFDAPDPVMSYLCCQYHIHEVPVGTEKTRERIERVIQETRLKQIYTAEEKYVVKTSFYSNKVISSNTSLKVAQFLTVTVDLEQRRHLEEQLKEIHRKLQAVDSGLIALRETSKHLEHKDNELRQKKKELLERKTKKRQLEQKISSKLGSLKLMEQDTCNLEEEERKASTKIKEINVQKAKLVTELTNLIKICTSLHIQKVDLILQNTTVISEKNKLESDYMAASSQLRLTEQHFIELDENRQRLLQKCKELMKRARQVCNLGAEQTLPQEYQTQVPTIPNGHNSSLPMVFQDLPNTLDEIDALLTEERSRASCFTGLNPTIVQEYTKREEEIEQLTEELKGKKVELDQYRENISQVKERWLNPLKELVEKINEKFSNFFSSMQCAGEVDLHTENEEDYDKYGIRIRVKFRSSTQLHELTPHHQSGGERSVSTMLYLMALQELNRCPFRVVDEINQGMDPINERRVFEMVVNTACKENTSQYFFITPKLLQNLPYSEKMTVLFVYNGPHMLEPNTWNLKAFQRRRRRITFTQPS
# UniProt Q86UW6: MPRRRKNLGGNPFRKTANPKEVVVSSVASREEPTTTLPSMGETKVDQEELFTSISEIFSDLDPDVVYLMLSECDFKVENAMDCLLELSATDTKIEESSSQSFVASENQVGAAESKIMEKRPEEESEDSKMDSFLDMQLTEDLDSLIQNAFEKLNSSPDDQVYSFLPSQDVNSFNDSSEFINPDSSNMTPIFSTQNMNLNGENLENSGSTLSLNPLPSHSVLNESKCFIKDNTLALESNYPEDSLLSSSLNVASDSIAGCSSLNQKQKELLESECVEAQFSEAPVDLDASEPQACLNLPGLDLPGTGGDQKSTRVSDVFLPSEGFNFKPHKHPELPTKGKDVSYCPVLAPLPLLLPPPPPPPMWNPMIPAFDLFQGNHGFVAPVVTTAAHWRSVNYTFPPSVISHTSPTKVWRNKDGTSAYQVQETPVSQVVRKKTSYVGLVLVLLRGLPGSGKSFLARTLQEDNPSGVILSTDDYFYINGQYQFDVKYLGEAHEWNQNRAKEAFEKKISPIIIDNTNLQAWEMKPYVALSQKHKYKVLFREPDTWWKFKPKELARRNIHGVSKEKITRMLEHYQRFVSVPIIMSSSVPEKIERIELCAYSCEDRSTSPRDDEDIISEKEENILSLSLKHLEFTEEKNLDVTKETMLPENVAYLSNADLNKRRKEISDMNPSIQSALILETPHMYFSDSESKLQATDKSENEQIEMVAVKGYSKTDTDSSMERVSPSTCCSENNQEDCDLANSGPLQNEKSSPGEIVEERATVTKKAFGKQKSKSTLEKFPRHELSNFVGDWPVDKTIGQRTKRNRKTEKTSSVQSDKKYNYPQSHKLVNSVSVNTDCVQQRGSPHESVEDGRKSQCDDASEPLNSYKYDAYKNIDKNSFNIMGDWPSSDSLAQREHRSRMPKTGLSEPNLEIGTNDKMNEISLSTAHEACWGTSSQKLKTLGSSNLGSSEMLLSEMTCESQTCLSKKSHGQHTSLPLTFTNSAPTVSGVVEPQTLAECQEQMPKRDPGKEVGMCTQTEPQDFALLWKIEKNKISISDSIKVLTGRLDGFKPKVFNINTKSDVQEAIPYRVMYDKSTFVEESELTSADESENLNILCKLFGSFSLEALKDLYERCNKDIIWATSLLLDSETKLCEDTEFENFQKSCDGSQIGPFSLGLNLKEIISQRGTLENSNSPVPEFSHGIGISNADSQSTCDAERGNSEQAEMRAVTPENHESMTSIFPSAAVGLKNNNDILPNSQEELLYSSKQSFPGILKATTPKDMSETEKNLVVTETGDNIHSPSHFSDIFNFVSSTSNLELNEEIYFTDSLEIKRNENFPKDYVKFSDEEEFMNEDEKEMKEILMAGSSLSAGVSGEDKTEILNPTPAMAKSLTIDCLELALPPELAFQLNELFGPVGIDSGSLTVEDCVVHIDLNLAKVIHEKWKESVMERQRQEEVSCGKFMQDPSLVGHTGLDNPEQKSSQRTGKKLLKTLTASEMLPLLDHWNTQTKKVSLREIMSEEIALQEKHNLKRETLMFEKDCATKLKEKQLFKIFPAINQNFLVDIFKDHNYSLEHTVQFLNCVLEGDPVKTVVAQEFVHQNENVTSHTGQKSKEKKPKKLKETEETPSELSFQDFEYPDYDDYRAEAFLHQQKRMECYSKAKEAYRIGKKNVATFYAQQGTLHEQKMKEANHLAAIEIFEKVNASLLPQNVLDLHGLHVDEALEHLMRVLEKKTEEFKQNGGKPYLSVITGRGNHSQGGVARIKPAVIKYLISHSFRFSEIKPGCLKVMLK
# UniProt Q8IZ21: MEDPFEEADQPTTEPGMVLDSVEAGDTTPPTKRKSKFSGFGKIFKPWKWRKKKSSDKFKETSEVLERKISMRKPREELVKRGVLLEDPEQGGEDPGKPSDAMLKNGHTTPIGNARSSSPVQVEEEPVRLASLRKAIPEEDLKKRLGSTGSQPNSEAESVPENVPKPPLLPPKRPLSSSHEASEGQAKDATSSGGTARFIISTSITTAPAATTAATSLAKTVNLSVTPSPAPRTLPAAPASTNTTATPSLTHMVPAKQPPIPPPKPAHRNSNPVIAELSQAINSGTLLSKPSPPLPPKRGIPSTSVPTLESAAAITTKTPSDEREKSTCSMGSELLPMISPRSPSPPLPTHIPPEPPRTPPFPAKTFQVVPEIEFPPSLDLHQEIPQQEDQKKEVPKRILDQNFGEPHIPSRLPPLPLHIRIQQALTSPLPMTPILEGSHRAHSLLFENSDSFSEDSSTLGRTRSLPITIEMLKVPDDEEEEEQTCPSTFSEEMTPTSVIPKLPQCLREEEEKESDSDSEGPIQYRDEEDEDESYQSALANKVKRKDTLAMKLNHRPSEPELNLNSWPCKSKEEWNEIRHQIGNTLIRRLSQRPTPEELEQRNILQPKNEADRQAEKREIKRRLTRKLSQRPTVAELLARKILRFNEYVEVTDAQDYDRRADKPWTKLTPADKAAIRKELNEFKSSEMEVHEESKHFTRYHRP
# ± gives the standard deviation of the averaged measurements. The entries are a selection whose mix differs from that of the whole data set. Most entries show no effect beyond the scatter of the controls.
# Compound: Nc1ncnc2c1ncn2[C@@H]1O[C@H](COP(=O)(O)OP(=O)(O)NP(=O)(O)O)[C@@H](O)[C@H]1O [adenylyl imidodiphosphate]
# Test: NP40-soluble protein abundance relative to vehicle (solubility fold change) (ratio); higher = more soluble protein in presence of AMP-PNP
# In short: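 Jurkat crude lysate prepared with a Dounce homogeniser was treated at eight concentrations spanning 0.1 to 10 mM, 10 min at room temperature then 3 min at 37 °C. Solubilisation with 0.8% NP40 and benzonase and ultracentrifugation preceded TMT labelling of the supernatant for LC-MS/MS. Fold change against the detergent-processed vehicle was determined per replicate from vsn-normalised intensities, across three independent experiments.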
Target,NP40-soluble protein abundance (concentration: 0.1mM),NP40-soluble protein abundance (concentration: 0.5mM)
GDPD1 (UniProt Q8N9F7),0.994 ± 0.044,1.01 ± 0.02
LIX1L (UniProt Q8IVB5),0.9873 ± 0.0039,0.999 ± 0.019
SETD3 (UniProt Q86TU7),0.9902 ± 0.0049,0.983 ± 0.049
ZC3H7A (UniProt Q8IWR0),0.995 ± 0.015,0.999 ± 0.043
AGGF1 (UniProt Q8N302),1 ± 0.032,1.005 ± 0.0028
UniProt Q86U38,1.04 ± 0.019,1.03 ± 0.022
SPATS2 (UniProt Q86XZ4),1.01 ± 0.027,1.04 ± 0.055
UniProt Q7Z6E9 and related entries,0.997 ± 0.028,1.05 ± 0.056
DDX51 (UniProt Q8N8A6),1.02 ± 0.038,1.01 ± 0.033
UniProt Q86X76 and related entries,1.04 ± 0.051,1.05 ± 0.07
SMYD4 (UniProt Q8IYR2),0.98 ± 0.026,0.98 ± 0.027
UniProt Q8IZH2 and related entries,1.01 ± 0.032,0.982 ± 0.033
NHLRC2 (UniProt Q8NBF2),1 ± 0.024,0.994 ± 0.024
UniProt Q86WV1 and related entries,0.992 ± 0.051,0.988 ± 0.058
UniProt Q86VX2 and related entries,1.01 ± 0.016,1.05 ± 0.05
DDX60 (UniProt Q8IY21),1.04 ± 0.083,1.05 ± 0.082
UBE2Q1 (UniProt Q7Z7E8),1.03 ± 0.025,1.02 ± 0.022
UniProt Q8N4P3 and related entries,0.998 ± 0.025,0.992 ± 0.055
ZNF687 (UniProt Q8N1G0),1 ± 0.034,0.999 ± 0.029
SMC5 (UniProt Q8IY18),0.989 ± 0.013,0.991 ± 0.024
UniProt Q8IWY9 and related entries,0.99 ± 0.021,0.9669 ± 0.0032
UniProt Q8IWI9 and related entries,0.997 ± 0.021,0.991 ± 0.032
DHX37 (UniProt Q8IY37),1.05 ± 0.039,1.03 ± 0.041
UniProt Q8N163,1.03 ± 0.066,0.971 ± 0.05
TTC39C (UniProt Q8N584),0.961 ± 0.018,0.984 ± 0.036
UniProt Q86UW6 and related entries,0.992 ± 0.031,1.01 ± 0.054
Q8IWY7 (UniProt Q6IQ55),0.981 ± 0.085,0.955 ± 0.028
UniProt Q8IZ21 and related entries,0.979 ± 0.025,0.954 ± 0.082
UniProt Q8IVB4,0.983 ± 0.022,0.994 ± 0.018
UniProt Q8NBJ5,0.997 ± 0.025,0.987 ± 0.029

# Quoted at random: 2 records from the list
Target,NP40-soluble protein abundance (concentration: 0.1mM),NP40-soluble protein abundance (concentration: 0.5mM)
UniProt Q7Z6E9 and related entries,0.997 ± 0.028,1.05 ± 0.056
SETD3 (UniProt Q86TU7),0.9902 ± 0.0049,0.983 ± 0.049
